Consider 28 molecules from the supplement of paper PMC4604168 (melanoma cell lines).

Some of the results follow. Single values are uncertain, as repeats are few or missing.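 Cells were imaged in 1,536-well plates, and nuclei stained with an antibody against cleaved PARP were counted against all DNA-stained nuclei to give the apoptosis fraction. Screening doses were chosen to leave most cells alive, and resting and induced cleaved-PARP levels differ strongly between cell lines.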

One experiment has as its system G361. The experiment is described as follows: cleaved PARP positive nuclei fraction relative to DMSO control; melanoma cells; higher = more apoptosis. Particulars: library dose: low library concentration; 72 h.
On to `CC(=O)O[C@@]12CO[C@@H]1C[C@H](O)[C@@]1(C)C(=O)[C@H](O)C3=C(C)[C@@H](OC(=O)[C@H](O)[C@@H](NC(=O)OC(C)(C)C)c4ccccc4)C[C@@](O)([C@@H](OC(=O)c4ccccc4)[C@H]21)C3(C)C` [Docetaxel] + C/C(O)=C(\C#N)C(=O)Nc1cc(Br)ccc1Br [LFM-A13] (first compound 0.0001 µM, partner dose 2 µM), for which the “cleaved PARP positive nuclei fraction” value stood at 545%. Turning to `C[C@]12O[C@H](C[C@]1(O)CO)n1c3ccccc3c3c4c(c5c6ccccc6n2c5c31)CNC4=O` [Lestaurtinib] + Cc1nc(Nc2ncc(C(=O)Nc3c(C)cccc3Cl)s2)cc(N2CCN(CCO)CC2)n1 [dasatanib] (first compound 0.004 µM, partner dose 0.004 µM), the “cleaved PARP positive nuclei fraction” value was 97.4%. `C[C@]12O[C@H](C[C@]1(O)CO)n1c3ccccc3c3c4c(c5c6ccccc6n2c5c31)CNC4=O` [Lestaurtinib] + CCc1ccc(CCOc2ccc(CC3SC(=O)NC3=O)cc2)nc1 [pioglitazone] (first compound 0.004 µM, partner dose 2 µM): the “cleaved PARP positive nuclei fraction” value worked out at 64.6%. Same read-out and setting: the same measure for `C[As](C)SC[C@H](NC(=O)CC[C@H](N)C(=O)O)C(=O)NCC(=O)O` [Darinaparsin] + Cn1cc(/C=C2\C(=O)Nc3cccnc32)c2ccccc21 [GW441756] (first compound 0.4 µM, partner dose 0.4 µM): 130%. Take `O=C(CCCCCCC(=O)Nc1ccccc1)NO` [vorinostat] + O=C(Oc1ccc([N+](=O)[O-])cc1)N1CCC(C(O)(c2ccc3c(c2)OCO3)c2ccc3c(c2)OCO3)CC1 [JZL184] (first compound 0.08 µM, partner dose 1 µM): the “cleaved PARP positive nuclei fraction” value was 62%.

As to `C=CCn1c(=O)c2cnc(Nc3ccc(N4CCN(C)CC4)cc3)nc2n1-c1cccc(C(C)(C)O)n1` + C/C(O)=C(\C#N)C(=O)Nc1cc(Br)ccc1Br [LFM-A13] (first compound 0.02 µM, partner dose 2 µM), the “cleaved PARP positive nuclei fraction” value is 132%. As to `Cc1cc(SCc2sc(-c3ccc(C(F)(F)F)c(F)c3)nc2C)ccc1OCC(=O)O` + COc1cc2ncnc(Nc3ccc(Oc4ccccc4)cc3)c2cc1OC [SrcI1] (first compound 2 µM, partner dose 2 µM), the “cleaved PARP positive nuclei fraction” value was found to be 134%.

Take `Cn1cc(C2=C(c3cn(C4CCN(Cc5ccccn5)CC4)c4ccccc34)C(=O)NC2=O)c2ccccc21` [Enzastaurin] + CC(=O)O[C@@]12CO[C@@H]1C[C@H](O)[C@@]1(C)C(=O)[C@H](O)C3=C(C)[C@@H](OC(=O)[C@H](O)[C@@H](NC(=O)OC(C)(C)C)c4ccccc4)C[C@@](O)([C@@H](OC(=O)c4ccccc4)[C@H]21)C3(C)C [Docetaxel] (first compound 0.8 µM, partner dose 0.0001 µM): the “cleaved PARP positive nuclei fraction” value came to 194%.

Turning to `O=C(/C=C/c1cccnc1)NCCCCC1CCN(C(=O)c2ccccc2)CC1` + C[As](C)SC[C@H](NC(=O)CC[C@H](N)C(=O)O)C(=O)NCC(=O)O [Darinaparsin] (first compound 0.01 µM, partner dose 0.4 µM), the “cleaved PARP positive nuclei fraction” value is 7300%. Regarding `C#Cc1cccc(Nc2ncnc3cc(OCCOC)c(OCCOC)cc23)c1` [erlotinib] + Cc1cc(SCc2sc(-c3ccc(C(F)(F)F)c(F)c3)nc2C)ccc1OCC(=O)O [GW0742] (first compound 0.8 µM, partner dose 2 µM), the “cleaved PARP positive nuclei fraction” value was found to be 129%.

As for `C[As](C)SC[C@H](NC(=O)CC[C@H](N)C(=O)O)C(=O)NCC(=O)O` [Darinaparsin] + COc1ccc(-c2ccc3c(N4CCOCC4)nc(N4C[C@@H](C)O[C@@H](C)C4)nc3n2)cc1CO [KU0063794] (first compound 0.4 µM, partner dose 0.02 µM), the “cleaved PARP positive nuclei fraction” value was 173%. In the case of `Cn1cc(C2=C(c3cn(C4CCN(Cc5ccccn5)CC4)c4ccccc34)C(=O)NC2=O)c2ccccc21` [Enzastaurin] + C[C@@H](Oc1cc(-c2cnn(C3CCNCC3)c2)cnc1N)c1c(Cl)ccc(F)c1Cl [Crizotinib] (first compound 0.8 µM, partner dose 0.2 µM), the “cleaved PARP positive nuclei fraction” value was found to be 27%. Turning to `COc1ccc(C2=N[C@@H](c3ccc(Cl)cc3)[C@@H](c3ccc(Cl)cc3)N2C(=O)N2CCNC(=O)C2)c(OC(C)C)c1` [Nutlin-3] + O=C(Oc1ccc([N+](=O)[O-])cc1)N1CCC(C(O)(c2ccc3c(c2)OCO3)c2ccc3c(c2)OCO3)CC1 [JZL184] (first compound 0.1 µM, partner dose 1 µM), the “cleaved PARP positive nuclei fraction” value worked out at 65.1%.

For a further experiment, the system named is IPC-298. The experiment is described as above. Particulars: library dose: low library concentration; 72 h.
On to `C[C@@H]1CCN(C(=O)CC#N)C[C@@H]1N(C)c1ncnc2[nH]ccc12` + O=C(Oc1ccc([N+](=O)[O-])cc1)N1CCC(C(O)(c2ccc3c(c2)OCO3)c2ccc3c(c2)OCO3)CC1 [JZL184] (first compound 1 µM, partner dose 1 µM), for which the “cleaved PARP positive nuclei fraction” value worked out at 78.8%. With `C[As](C)SC[C@H](NC(=O)CC[C@H](N)C(=O)O)C(=O)NCC(=O)O` [Darinaparsin] + C/C(O)=C(\C#N)C(=O)Nc1cc(Br)ccc1Br [LFM-A13] (first compound 0.4 µM, partner dose 2 µM), the “cleaved PARP positive nuclei fraction” value was determined as 103%. On the same count and under the same terms, with `Cn1c(=O)n(-c2ccc(C(C)(C)C#N)cc2)c2c3cc(-c4cnc5ccccc5c4)ccc3ncc21` + N.N.[Cl][Pt][Cl] [cisplatin] (first compound 0.004 µM, partner dose 1.6 µM) the figure was 84.8%.

Regarding `CC(=O)O[C@@]12CO[C@@H]1C[C@H](O)[C@@]1(C)C(=O)[C@H](O)C3=C(C)[C@@H](OC(=O)[C@H](O)[C@@H](NC(=O)OC(C)(C)C)c4ccccc4)C[C@@](O)([C@@H](OC(=O)c4ccccc4)[C@H]21)C3(C)C` [Docetaxel] + C[As](C)SC[C@H](NC(=O)CC[C@H](N)C(=O)O)C(=O)NCC(=O)O [Darinaparsin] (first compound 0.0001 µM, partner dose 0.4 µM), the “cleaved PARP positive nuclei fraction” value is 264%.

As for `C[C@]12O[C@H](C[C@]1(O)CO)n1c3ccccc3c3c4c(c5c6ccccc6n2c5c31)CNC4=O` [Lestaurtinib] + Cn1c(Nc2ccc(C(F)(F)F)cc2)nc2cc(Oc3ccnc(-c4ncc(C(F)(F)F)[nH]4)c3)ccc21 [CHIR265] (first compound 0.004 µM, partner dose 0.08 µM), the “cleaved PARP positive nuclei fraction” value came out at 124%.

Regarding `Cn1cc(C2=C(c3cn(C4CCN(Cc5ccccn5)CC4)c4ccccc34)C(=O)NC2=O)c2ccccc21` [Enzastaurin] + Cc1cc(Nc2cc(N3CCN(C)CC3)nc(/C=C/c3ccccc3)n2)n[nH]1 [ENMD2076] (first compound 0.8 µM, partner dose 0.04 µM), the “cleaved PARP positive nuclei fraction” value was found to be 86.8%.

On to `Cc1cc(Nc2cc(N3CCN(C)CC3)nc(Sc3ccc(NC(=O)C4CC4)cc3)n2)n[nH]1` [Tozasertib] + N.N.[Cl][Pt][Cl] [cisplatin] (first compound 0.006 µM, partner dose 1.6 µM), for which the “cleaved PARP positive nuclei fraction” value worked out at 125%. On the same count and under the same terms, with `C[C@]12O[C@H](C[C@]1(O)CO)n1c3ccccc3c3c4c(c5c6ccccc6n2c5c31)CNC4=O` [Lestaurtinib] + C[C@@H](Oc1cc(-c2cnn(C3CCNCC3)c2)cnc1N)c1c(Cl)ccc(F)c1Cl [Crizotinib] (first compound 0.004 µM, partner dose 0.2 µM) the figure was 88.6%; with `N.N.[Cl][Pt][Cl]` [cisplatin] + Clc1ccc(Nc2nnc(Cc3ccncc3)c3ccccc23)cc1 [vatalanib] (first compound 1.6 µM, partner dose 2 µM), 123%. Regarding `O=c1[nH]nc(Sc2ncc([N+](=O)[O-])s2)n1-c1ccc2c(c1)OCCO2` + C[C@]12O[C@H](C[C@]1(O)CO)n1c3ccccc3c3c4c(c5c6ccccc6n2c5c31)CNC4=O [Lestaurtinib] (first compound 0.2 µM, partner dose 0.004 µM), the “cleaved PARP positive nuclei fraction” value is 167%. `COc1cc([C@@H]2c3cc4c(cc3[C@@H](O[C@@H]3O[C@@H]5CO[C@@H](C)O[C@H]5[C@H](O)[C@H]3O)[C@H]3COC(=O)[C@H]23)OCO4)cc(OC)c1O` [etoposide] + N.N.[Cl][Pt][Cl] [cisplatin] (first compound 0.02 µM, partner dose 1.6 µM): the “cleaved PARP positive nuclei fraction” value came out at 127%. On the same count and under the same terms, with `C[C@]12O[C@H](C[C@]1(O)CO)n1c3ccccc3c3c4c(c5c6ccccc6n2c5c31)CNC4=O` [Lestaurtinib] + C[As](C)SC[C@H](NC(=O)CC[C@H](N)C(=O)O)C(=O)NCC(=O)O [Darinaparsin] (first compound 0.004 µM, partner dose 0.4 µM) the figure was 335%; with `COc1ccc(COc2ccc(Cc3cnc(N)nc3N)cc2OC)cc1` + O=C(Oc1ccc([N+](=O)[O-])cc1)N1CCC(C(O)(c2ccc3c(c2)OCO3)c2ccc3c(c2)OCO3)CC1 [JZL184] (first compound 1 µM, partner dose 1 µM), 42.3%.

`Cn1cc(C2=C(c3cn(C4CCN(Cc5ccccn5)CC4)c4ccccc34)C(=O)NC2=O)c2ccccc21` [Enzastaurin] + NC1(c2ccc(-c3nc4ccn5c(=O)[nH]nc5c4cc3-c3ccccc3)cc2)CCC1 [MK2206] (first compound 0.8 µM, partner dose 0.4 µM): the “cleaved PARP positive nuclei fraction” value amounted to 80.5%. Take `NC(=O)c1ccc(N(C(N)=O)c2c(F)cccc2F)nc1-c1ccc(F)cc1F` + O=C(Oc1ccc([N+](=O)[O-])cc1)N1CCC(C(O)(c2ccc3c(c2)OCO3)c2ccc3c(c2)OCO3)CC1 [JZL184] (first compound 0.4 µM, partner dose 1 µM): the “cleaved PARP positive nuclei fraction” value worked out at 186%.
